According to patent US20170335314:
For at least one entry, the source does not settle the construct or the ends of the probe. No signal at the amounts used counts as a negative. Weaker means in comparison with the reference protein, sequence or condition of that experiment.

Test system: biotinylated anti-BRD7 Fab fragment (murine IgG1 isotype + bFab) (Mus musculus)
Experiment: pull-down
Details: purified native protein, protein details: biotinylated, ThermoFisher

CATCTCCACCTCCATAACCCACGGACGGGCGTCTAGAGAAGTAGGCTGAAATATCGTGGCGAGAACGAGCTGTGTCCTGAAGAAA [aptamer 229 (10AptL3)]
binding result (streptavidin bead pulldown, PBSM, single-stranded DNA): binds

CATCTCCACCTCCATAACCCACGGACGGGCGTCTAGAGAAGTAGGCTGAAATATCGTGGCGAGAACGAGCTGTGTCCTGAAGAAACCGGCTGCGC / CGACGCGGGCGCAAAGACATCTGGACACGCCACTAAGTGGAGGTGATCTGTACTTCATTTATGAGATCGCGGCGAGGAGAAGGAGACTTAGAGGC [stem-loop linked binary 229-3'-Ext1/228-5'-Ext1]
binding result (templated click product on bFab-bound binary, folded or branched DNA): binds

CATCTCCACCTCCATAACCCACGGACGGGCGTCTAGAGAAGTAGGCTGAAATATCGTGGCGAGAACGAGCTGTGTCCTGAAGAAACCGGCTGCGC [aptamer 229-3'-Ext1]
binding result (binding reduced somewhat versus 229, PBSM, single-stranded DNA, variant of aptamer 229 (10AptL3)): binds more weakly

CATCTCCACCTCCATAACCCACGGACGGGCGTCTAGAGAAGTAGGCTGAAATATCGTGGCGAGAACGAGCTGTGTCCTGAAGAAAGCAAAGACATCTGGACACGCCACTAAGTGGAGGTGATCTGTACTTCATTTATGAGATCGCGGCGAGGAGAAGGAGACTTAGAGGC [binary aptamer 229-228 (ligated, 170 nt)]
binding result (pre-ligated binary, splint-ligated form and purified splint-free form both bind, single-stranded DNA): binds

CGACGCGGGCGCAAAGACATCTGGACACGCCACTAAGTGGAGGTGATCTGTACTTCATTTATGAGATCGCGGCGAGGAGAAGGAGACTTAGAGGC [aptamer 228-5'-Ext1]
binding result (little affected by appended tag, PBSM, single-stranded DNA, variant of aptamer 228 (10AptR1)): binds

GCAAAGACATCTGGACACGCCACTTATAGTCTACGTGAAGCACTGCGCTGGAACAGCCTAAAAAAGGAGAAGGAGACTTAGAGGC [aptamer 136 (unselected control R-aptamer)]
binding result (unselected control, supernatant not depleted, PBSM, single-stranded DNA): no binding
